According to patent US20170100383A1, “TOPICAL FORMULATIONS FOR PREVENTING SKIN INFECTION” (Practical Solution, Inc., priority 2015, published 2017):
“And” between values parts separate entries of the source, which are not always exact repeats. Equal values may be shown once. Read-outs that look alike come from different tables or passages of the source.

Tests used:
Assay type in all cases: cell-based
[1] = test system: Staphylococcus aureus ATCC6538; assay: Broth microdilution inhibitory rate (MIC assay) against Staphylococcus aureus; conditions: ATCC6538, CHG-5, 48 h
Procedure: (§1) A minimum inhibitory concentration (MIC) assay was carried to investigate the lowest concentration of CHG, CPC, and a combination thereof, that inhibits the visible growth of Staphyloccocus aureus, Bacillus subtilis and Candida albicans after 48-hour incubation using broth microdilution.
(§2) Briefly, CHG, CPC, or a combination thereof was dissolved in distill water at different concentrations as indicated below (initial concentrations):
(§3) CHG+CPC: 5 g/L (CHG) and 0.5 g/L (CPC)
(§4) CHG, CPC, and CHG+CPC having the above-noted concentrations were diluted to fold serial dilutions with distill water. 2.5 ml of CHG, CPC, or CHG+CPC were mixed with 2.5 ml of broth comprising growth media, such as Mueller-Hinton Broth (MHB), to obtain 10-, 100-, 1,000-, 2,000-, 4,000-, 8,000-, 16,000-, or 32,000-concentration dilution. Staphyloccocus aureus strain ATCC 6538, Bacillus subtilis ATCC9372 or Candida albicans ATCC10231 each (0.1 ml of a bacterial suspension having 10^8 cfu/ml bacteria) were inoculated into the mixture. A broth inoculated with the same microorganisms and having no CHG and CPC was used as a positive control and a broth having CHG and/or CPC but no microorganisms was used as a blank control. Test tubes containing the mixtures were placed in a 37° C. incubator and incubated for 48 hours. The concentration of bacterial cells in each test tube was measured. The inhibitory rates were calculated as below:
(§5) [(Positive control average colony count−Test average colony count)/Positive control average colony count]×100%
(§6) Positive controls are the tubes having broth and microorganisms but no antimicrobial agents.

[2] = test system: Candida albicans ATCC10231; assay: Broth microdilution inhibitory rate (MIC assay) against Candida albicans; conditions: ATCC10231, CHG-5, 48 h
Procedure: as §1, §2, §3, §4, §5, §6

[3] = test system: Bacillus subtilis ATCC9372
Procedure: as §1, §2, §3
as §4, with “Test tubes containing the mixtures were placed in a 37° C. incubator and incubated for 48 hours.” left out, “below: […]” for “below:”

[4] = read-out: Anti-microbial activity (inhibitory rate), dilution 1* of initial concentration (CHG 5 g/L, CPC 0.5 g/L), 37° C.
[5] = read-out: Anti-microbial activity (inhibitory rate), dilution 1/10 of initial concentration (CHG 5 g/L, CPC 0.5 g/L)
[6] = read-out: Anti-microbial activity (inhibitory rate), dilution 1/100 of initial concentration (CHG 5 g/L, CPC 0.5 g/L)
[7] = read-out: Anti-microbial activity (inhibitory rate), dilution 1/1000 of initial concentration (CHG 5 g/L, CPC 0.5 g/L)
[8] = read-out: Anti-microbial activity (inhibitory rate), dilution 1/2000 of initial concentration (CHG 5 g/L, CPC 0.5 g/L)
[9] = read-out: Anti-microbial activity (inhibitory rate), dilution 1/4000 of initial concentration (CHG 5 g/L, CPC 0.5 g/L)

## CCCCCCCCCCCCCCCC[n+]1ccccc1 [CPC, cetylpyridinium chloride]
[1]; [4]
  inhibition at 500 µg/mL: 100%
[1]; [5]
  inhibition at 500 µg/mL: 100%
[1]; [6]
  inhibition at 500 µg/mL: 100%
[1]; [7]
  inhibition at 500 µg/mL: 100%
[1]; [8]
  inhibition at 500 µg/mL: 98.5%
[1]; [9]
  inhibition at 500 µg/mL: 36.3%
[1]; read-out: Anti-microbial activity (inhibitory rate), dilution 1/8000 of initial concentration (CHG 5 g/L, CPC 0.5 g/L)
  inhibition at 500 µg/mL: 24.5%
[2]; [4]
  inhibition at 500 µg/mL: 100%
[2]; [5]
  inhibition at 500 µg/mL: 100%
[2]; [6]
  inhibition at 500 µg/mL: 99.9%
[2]; [7]
  inhibition at 500 µg/mL: 91.4%
[2]; [8]
  inhibition at 500 µg/mL: 89.4%
[2]; [9]
  inhibition at 500 µg/mL: 45.9%
[3]
  Anti-microbial activity (inhibitory rate): 97.73% and 96.45% and 96.25% and 93.00% and 90.05% and 62.50% and 100%
